Among the data in patent US20250205372A1 (The Research Foundation for The State University of New York, priority 2022, published 2025) are step yield values, retold here.

This data set can be described thus: general procedure: Fmoc solid-phase peptide synthesis; TentaGel S-NH2 (0.26 mmol/g); Wang resin (0.8 mmol/g); 2-chlorotrityl chloride resin (1.0 mmol/g); PyBOP/DIEA. Conditions: late stage modification step.

The substance “2,2′-(7-((11S,14S)-14-((1H-indol-3-yl)methyl)-11-(3-amino-3-oxopropyl)-19-((2,5-dioxopyrrolidin-1-yl)oxy)-17-(2-nitrophenyl)-2,9,12,15,19-pentaoxo-3,10,13,16-tetraazanonadecyl)-1,4,7-triazonane-1,4-diyl)diacetic acid” yielded a step yield of 60%.
For the substance “Gallium 2,2′-(7-((5S,8S)-5-((1H-indol-3-yl)methyl)-8-(3-amino-3-oxopropyl)-1-carboxy-2-(2-nitrophenyl)-4,7,10,17-tetraoxo-3,6,9,16-tetraazaoctadecan-18-yl)-1,4,7-triazonane-1,4-diyl)diacetate”, the step yield is given as 32%.
The value for “Di-tert-butyl2,2′-(7-((11S,14S)-14-((1-(tert-butoxycarbonyl)-1H-indol-3-yl)methyl)-19-((2,5-ioxopyrrolidin-1-yl)oxy)-17-(2-nitrophenyl)-2,9,12,15,19-pentaoxo-11-(3-oxo-3-(tritylamino)propyl)-3,10,13,16-tetraazanonadecyl)-1,4,7-triazonane-1,4-diyl)diacetate” was 85%; that for “Copper 2,2′-(7-((5S,8S)-5-((1H-indol-3-yl)methyl)-8-(3-amino-3-oxopropyl)-1-carboxy-2-(2-nitrophenyl)-4,7,10,17-tetraoxo-3,6,9,16-tetraazaoctadecan-18-yl)-1,4,7-triazonane-1,4-diyl)diacetate” was 30%.
